# Values of other authors as cited in article PMC10716778 (The Journal of Biological Chemistry, 2023).
# Test system: K. pneumoniae clinical isolates containing KPC-2
# Conditions: K. pneumoniae clinical isolate containing KPC-2; cited from earlier work
compound,measurement,value
C[C@@H](O)[C@H]1C(=O)N2C(C(=O)O)=C(S[C@@H]3CN[C@H](C(=O)N(C)C)C3)[C@H](C)[C@H]12 [Meropenem],MIC,> 32 µg/mL
